Paper PMC5778034

Protein sequences, listed by entry. Tags and fused reporters are not part of them.
UniProt P31749: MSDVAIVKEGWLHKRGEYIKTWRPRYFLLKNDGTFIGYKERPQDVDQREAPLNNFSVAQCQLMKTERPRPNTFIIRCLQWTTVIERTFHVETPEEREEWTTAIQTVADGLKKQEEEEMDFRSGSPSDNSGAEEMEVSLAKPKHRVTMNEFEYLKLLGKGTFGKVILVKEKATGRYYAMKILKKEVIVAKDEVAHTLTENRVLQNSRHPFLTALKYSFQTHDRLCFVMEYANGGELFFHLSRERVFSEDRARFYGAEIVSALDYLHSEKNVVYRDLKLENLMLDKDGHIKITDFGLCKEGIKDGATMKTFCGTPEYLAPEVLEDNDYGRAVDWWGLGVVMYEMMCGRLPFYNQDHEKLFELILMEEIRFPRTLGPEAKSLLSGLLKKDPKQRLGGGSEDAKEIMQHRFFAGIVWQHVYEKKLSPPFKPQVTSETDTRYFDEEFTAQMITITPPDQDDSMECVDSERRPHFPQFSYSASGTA

Columns and labels:
[1] = target: Akt1 (PKBα) (human) (UniProt P31749); test: affinity purification with mass spectrometry; SH-tagged Akt1 as bait; SILAC-labelled HEK293 cells arrested in G0 (serum starvation), G1/S (aphidicolin) and G2 (nocodazole) mixed 1:1:1; lysis in IP buffer (150 mM NaCl, 50 mM Tris-HCl pH 7.5, 1% NP-40); streptactin magnetic beads and anti-HA agarose in parallel at 4 °C, eluates pooled; LC-MS/MS, 1% G-FDR-fit, three replicates; hits of SH-tagged GFP subtracted
[2] = target: Akt1 (PKBα) (human) (UniProt P31749); test: affinity purification with mass spectrometry; as a1, medium (K6R6) SILAC channel: cells arrested in G2 by 400 ng/ml nocodazole for 16-18 hours, ratio against the light G0 channel
[3] = target: Akt1 (PKBα) (human) (UniProt P31749); test: affinity purification with mass spectrometry; SH-tagged Akt1 as bait; SILAC-labelled HEK293 cells arrested in G0 (serum starvation), G1/S (aphidicolin) and G2 (nocodazole) mixed 1:1:1; lysis in IP buffer (150 mM NaCl, 50 mM Tris-HCl pH 7.5, 1% NP-40); streptactin magnetic beads and anti-HA agarose in parallel at 4 °C, eluates pooled; LC-MS/MS, 1% G-FDR-fit, three replicates; hits of SH-tagged GFP subtracted; remark: listed apart in the source

| Molecule | binding [1] | binding [2] | binding [3] |
| --- | --- | --- | --- |
| HSP90AA1 (from UniProt P07900 1-732) | binds | binds weakly | – |
| CDC37 (protein, UniProt Q16543 1-378) MVDYSVWDHIEVSDDEDETHPNIDTASLFRWRHQARVERMEQFQKEKEELDRGCRECKRKVAECQRKLKELEVAEGGKAELERLQAEAQQLRKEERSWEQKLEEMRKKEKSMPWNVDTLSKDGFSKSMVNTKPEKTEEDSEEVREQKHKTFVEKYEKQIKHFGMLRRWDDSQKYLSDNVHLVCEETANYLVIWCIDLEVEEKCALMEQVAHQTIVMQFILELAKSLKVDPRACFRQFFTKIKTADRQYMEGFNDELEAFKERVRGRAKLRIEKAMKEYEEEERKKRLGPGGLDPVEVYESLPEELQKCFDVKDVQMLQDAISKMDPTDAKYHMQRCIDSGLWVPNSKASEAKEGEEAGPGDPLLEAVPKTGDEKDVSV | – | – | binds |
| ANLN (protein, UniProt Q9NQW6 1-1124) MDPFTEKLLERTRARRENLQRKMAERPTAAPRSMTHAKRARQPLSEASNQQPLSGGEEKSCTKPSPSKKRCSDNTEVEVSNLENKQPVESTSAKSCSPSPVSPQVQPQAADTISDSVAVPASLLGMRRGLNSRLEATAASSVKTRMQKLAEQRRRWDNDDMTDDIPESSLFSPMPSEEKAASPPRPLLSNASATPVGRRGRLANLAATICSWEDDVNHSFAKQNSVQEQPGTACLSKFSSASGASARINSSSVKQEATFCSQRDGDASLNKALSSSADDASLVNASISSSVKATSPVKSTTSITDAKSCEGQNPELLPKTPISPLKTGVSKPIVKSTLSQTVPSKGELSREICLQSQSKDKSTTPGGTGIKPFLERFGERCQEHSKESPARSTPHRTPIITPNTKAIQERLFKQDTSSSTTHLAQQLKQERQKELACLRGRFDKGNIWSAEKGGNSKSKQLETKQETHCQSTPLKKHQGVSKTQSLPVTEKVTENQIPAKNSSTEPKGFTECEMTKSSPLKITLFLEEDKSLKVTSDPKVEQKIEVIREIEMSVDDDDINSSKVINDLFSDVLEEGELDMEKSQEEMDQALAESSEEQEDALNISSMSLLAPLAQTVGVVSPESLVSTPRLELKDTSRSDESPKPGKFQRTRVPRAESGDSLGSEDRDLLYSIDAYRSQRFKETERPSIKQVIVRKEDVTSKLDEKNNAFPCQVNIKQKMQELNNEINMQQTVIYQASQALNCCVDEEHGKGSLEEAEAERLLLIATGKRTLLIDELNKLKNEGPQRKNKASPQSEFMPSKGSVTLSEIRLPLKADFVCSTVQKPDAANYYYLIILKAGAENMVATPLASTSNSLNGDALTFTTTFTLQDVSNDFEINIEVYSLVQKKDPSGLDKKKKTSKSKAITPKRLLTSITTKSNIHSSVMASPGGLSAVRTSNFALVGSYTLSLSSVGNTKFVLDKVPFLSSLEGHIYLKIKCQVNSSVEERGFLTIFEDVSGFGAWHRRWCVLSGNCISYWTYPDDEKRKNPIGRINLANCTSRQIEPANREFCARRNTFELITVRPQREDDRETLVSQCRDTLCVTKNWLSADTKEERDLWMQKLNQVLVDIRLWQPDACYKPIGKP | – | – | binds |

Results are given in words; binding and its absence hold for the method and conditions named. Binding seen in cells or lysates may run through a third protein. These calls come from enrichment with a bait or labelling near it, and not all partners need be listed.
